Laboratory results as given in patent US20250084044A1, “PROTOPORPHYRINOGEN OXIDASE INHIBITORS” (Enko Chem, Inc., priority 2022, published 2025).
Where two headings read alike, the source gives them in different places. Some entries share one result that the patent states for a list of compounds.

Target: T1, Amaranthus tuberculantum Protoporphyrinogen Oxidase (AmPPO) (Amaranthus tuberculatus, UniProt Q0NZW9)
T1 construct: fused on or other part: C-terminal His tag (pET28b vector)
T1 sequence (Q0NZW9 1-534): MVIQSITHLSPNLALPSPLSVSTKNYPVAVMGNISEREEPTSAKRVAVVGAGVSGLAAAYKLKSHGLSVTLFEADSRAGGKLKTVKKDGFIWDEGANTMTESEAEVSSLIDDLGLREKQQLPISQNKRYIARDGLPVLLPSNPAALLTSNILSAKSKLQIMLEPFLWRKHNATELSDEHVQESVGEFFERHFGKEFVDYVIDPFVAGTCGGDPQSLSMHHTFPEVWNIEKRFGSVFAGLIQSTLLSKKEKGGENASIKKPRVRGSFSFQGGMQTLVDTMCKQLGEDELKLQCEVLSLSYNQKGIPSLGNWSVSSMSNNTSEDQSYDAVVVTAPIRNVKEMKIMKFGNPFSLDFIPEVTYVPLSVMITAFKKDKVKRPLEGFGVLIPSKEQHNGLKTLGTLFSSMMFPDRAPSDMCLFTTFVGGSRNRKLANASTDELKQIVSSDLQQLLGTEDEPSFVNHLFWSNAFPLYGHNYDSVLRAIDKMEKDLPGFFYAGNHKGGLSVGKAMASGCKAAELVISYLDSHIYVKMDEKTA
Assay: PPO in vitro assay (AmPPO)
Format: biochemical

`CN(C)C(=O)CN1C(=O)C(F)(F)Oc2cc(F)c(-c3c(F)c(F)c(F)c(F)c3F)cc21` [Compound 90, N,N-dimethyl-2-(2,2,7-trifluoro-3-oxo-6-(perfluorophenyl)-2,3-dihydro-4H-benzo[b][1,4]oxazin-4-yl)acetamide] was tested, and the IC50 was under 100 nM and the IC50 (Example 17b) was under 100 nM.

In the case of `C[C@H](C(=O)N(C)CCC(=O)O)N1C(=O)C(F)(F)Oc2cc(F)c(-c3c(F)c(F)c(F)c(F)c3F)cc21` [Compound 135, (R)-3-(N-methyl-2-(2,2,7-trifluoro-3-oxo-6-(perfluorophenyl)-2,3-dihydro-4H-benzo[b][1,4]oxazin-4-yl)propanamido)propanoic acid], the IC50 is reported as under 100 nM and the IC50 (Example 17b) is reported as under 100 nM.

`O=C(O)[C@H]1CCCN1C(=O)CN1C(=O)C(F)(F)Oc2cc(F)c(-c3c(F)c(F)c(F)c(F)c3F)cc21` [Compound 73, (2-(2,2,7-trifluoro-3-oxo-6-(perfluorophenyl)-2,3-dihydro-4H-benzo[b][1,4]oxazin-4-yl)acetyl)-D-proline] gave an IC50 of under 100 nM and an IC50 (Example 17b) of under 100 nM.

With `COC(=O)[C@H](C(C)C)N1C(=O)C(F)(F)Oc2cc(F)c(-c3c(F)c(F)c(F)c(F)c3F)cc21` [Compound 152, methyl (S)-3-methyl-2-(2,2,7-trifluoro-3-oxo-6-(perfluorophenyl)-2,3-dihydro-4H-benzo[b][1,4]oxazin-4-yl)butanoate] the IC50 (Example 17b) was under 100 nM.

`COC(=O)[C@@H]1CCCCN1C(=O)CN1C(=O)C(F)(F)Oc2cc(F)c(-c3c(F)c(F)c(F)c(F)c3F)cc21` [Compound 109, methyl (S)-1-(2-(2,2,7-trifluoro-3-oxo-6-(perfluorophenyl)-2,3-dihydro-4H-benzo[b][1,4]oxazin-4-yl)acetyl)piperidine-2-carboxylate] gave an IC50 of under 100 nM and an IC50 (Example 17b) of under 100 nM.

With `CC[C@H](C(=O)O)N1C(=O)C(F)(F)Oc2cc(F)c(-c3c(F)c(F)c(F)c(F)c3F)cc21` [Compound 52, (R)-2-(2,2,7-trifluoro-3-oxo-6-(perfluorophenyl)-2,3-dihydro-4H-benzo[b][1,4]oxazin-4-yl)butanoic acid] the IC50 was under 100 nM and the IC50 (Example 17b) was under 100 nM.

Work on `COC(=O)CN1C(=O)C(F)(F)Oc2cc(F)c(-c3c(F)cc(F)c(F)c3F)cc21` [Compound 64, methyl 2-(2,2,7-trifluoro-3-oxo-6-(2,3,4,6-tetrafluorophenyl)-2,3-dihydro-4H-benzo[b][1,4]oxazin-4-yl)acetate] yielded an IC50 of under 100 nM and an IC50 (Example 17b) of under 100 nM.

`COC(=O)CCN(C)C(=O)CN1C(=O)C(F)(F)Oc2cc(F)c(-c3c(F)c(F)c(F)c(F)c3F)cc21` [Compound 80, methyl 3-(N-methyl-2-(2,2,7-trifluoro-3-oxo-6-(perfluorophenyl)-2,3-dihydro-4H-benzo[b][1,4]oxazin-4-yl)acetamido)propanoate] showed an IC50 of under 100 nM and an IC50 (Example 17b) of under 100 nM.

In the case of `O=C(O)C#CCN1C(=O)C(F)(F)Oc2cc(F)c(-c3c(F)c(F)c(F)c(F)c3F)cc21` [Compound 28, 4-(2,2,7-trifluoro-3-oxo-6-(perfluorophenyl)-2,3-dihydro-4H-benzo[b][1,4]oxazin-4-yl)but-2-ynoic acid], the IC50 is reported as under 100 nM and the IC50 (Example 17b) is reported as under 100 nM.

For `O=C(O)C1CN(C(=O)CN2C(=O)C(F)(F)Oc3cc(F)c(-c4c(F)cc(F)c(F)c4F)cc32)C1` [Compound 165, 1-(2-(2,2,7-trifluoro-3-oxo-6-(2,3,4,6-tetrafluorophenyl)-2,3-dihydro-4H-benzo[b][1,4]oxazin-4-yl)acetyl)azetidine-3-carboxylic acid], the IC50 (Example 17b) was under 100 nM.

Compound `COC(=O)[C@@H](C)N1C(=O)C(F)(F)Oc2cc(F)c(-c3c(F)cc(F)c(F)c3F)cc21` [Compound 77, methyl (2R)-2-(2,2,7-trifluoro-3-oxo-6-(2,3,4,6-tetrafluorophenyl)-2,3-dihydro-4H-benzo[b][1,4]oxazin-4-yl)propanoate] has an IC50 of under 100 nM and an IC50 (Example 17b) of under 100 nM.

Compound `COC(=O)CCNC(=O)CN1C(=O)C(F)(F)Oc2cc(F)c(-c3c(F)c(F)c(F)c(F)c3F)cc21` [Compound 94, methyl 3-(2-(2,2,7-trifluoro-3-oxo-6-(perfluorophenyl)-2,3-dihydro-4H-benzo[b][1,4]oxazin-4-yl)acetamido)propanoate] has an IC50 of under 100 nM and an IC50 (Example 17b) of under 100 nM.

With `Cc1cc2c(cc1-c1c(F)c(F)c(F)c(F)c1F)N(CC(=O)O)C(=O)C(F)(F)O2` [Compound 180, 2-(2,2-difluoro-7-methyl-3-oxo-6-(perfluorophenyl)-2,3-dihydro-4H-benzo[b][1,4]oxazin-4-yl)acetic acid] the IC50 (Example 17b) was under 1000 nM.

`COC(=O)CN1C(=O)COc2ccc(-c3c(F)c(F)c(F)c(F)c3F)cc21` [Compound 39, methyl 2-(3-oxo-6-(perfluorophenyl)-2,3-dihydro-4H-benzo[b][1,4]oxazin-4-yl)acetate] gave an IC50 of under 100 nM and an IC50 (Example 17b) of under 100 nM.

`O=C(CN1C(=O)C(F)(F)Oc2cc(F)c(-c3c(F)c(F)c(F)c(F)c3F)cc21)NOCc1ccccc1` [Compound 70, N-(benzyloxy)-2-(2,2,7-trifluoro-3-oxo-6-(perfluorophenyl)-2,3-dihydro-4H-benzo[b][1,4]oxazin-4-yl)acetamide] was tested, and the IC50 was under 100 nM and the IC50 (Example 17b) was under 100 nM.

Compound `CC(C)OC(=O)[C@H](C)N1C(=O)C(F)(F)Oc2cc(F)c(-c3c(F)c(F)c(F)c(F)c3F)cc21` [Compound 37, isopropyl (S)-2-(2,2,7-trifluoro-3-oxo-6-(perfluorophenyl)-2,3-dihydro-4H-benzo[b][1,4]oxazin-4-yl)propanoate] has an IC50 of under 100 nM and an IC50 (Example 17b) of under 100 nM.

Compound `COC(=O)CCN(C)C(=O)CN1C(=O)C(F)(F)Oc2cc(F)c(-c3c(F)cc(F)c(F)c3F)cc21` [Compound 162, methyl 3-(N-methyl-2-(2,2,7-trifluoro-3-oxo-6-(2,3,4,6-tetrafluorophenyl)-2,3-dihydro-4H-benzo[b][1,4]oxazin-4-yl)acetamido)propanoate] has an IC50 (Example 17b) of under 100 nM.

`COC(=O)[C@@H](C)N1C(=O)C2(CC2)Oc2cc(F)c(-c3c(F)c(F)c(F)c(F)c3F)cc21` [Compound 32, methyl (R)-2-(7-fluoro-3-oxo-6-(perfluorophenyl)spiro[benzo[b][1,4]oxazine-2,1′-cyclopropan]-4(3H)-yl)propanoate] was tested, and the IC50 was under 100 nM and the IC50 (Example 17b) was under 100 nM.

`COC(=O)CN1C(=O)C2(CC2)Oc2cc(F)c(-c3c(F)c(F)c(F)c(F)c3F)cc21` [Compound 22, methyl 2-(7-fluoro-3-oxo-6-(perfluorophenyl)spiro[benzo[b][1,4]oxazine-2,1′-cyclopropan]-4(3H)-yl)acetate] showed an IC50 of under 100 nM and an IC50 (Example 17b) of under 100 nM.

In the case of `C[C@H](C(=O)O)N1C(=O)C(F)(F)Oc2cc(F)c(-c3c(F)cc(F)c(F)c3F)cc21` [Compound 79, (2R)-2-(2,2,7-trifluoro-3-oxo-6-(2,3,4,6-tetrafluorophenyl)-2,3-dihydro-H-benzo[b][1,4]oxazin-4-yl)propanoic acid], the IC50 is reported as under 100 nM and the IC50 (Example 17b) is reported as under 100 nM.

In the case of `O=C(O)CN1C(=O)C(F)(F)Oc2cc(F)c(-c3c(F)cc(F)c(F)c3F)cc21` [Compound 65, 2-(2,2,7-trifluoro-3-oxo-6-(2,3,4,6-tetrafluorophenyl)-2,3-dihydro-4H-benzo[b][1,4]oxazin-4-yl)acetic acid], the IC50 (Example 17b) is reported as under 1000 nM.

In the case of `COC(=O)c1ccccc1CCN1C(=O)C(F)(F)Oc2cc(F)c(-c3c(F)c(F)c(F)c(F)c3F)cc21` [Compound 105, methyl 2-(2-(2,2,7-trifluoro-3-oxo-6-(perfluorophenyl)-2,3-dihydro-4H-benzo[b][1,4]oxazin-4-yl)ethyl)benzoate], the IC50 is reported as under 100 nM and the IC50 (Example 17b) is reported as under 100 nM.

With `O=C(O)c1ccccc1CCN1C(=O)C(F)(F)Oc2cc(F)c(-c3c(F)c(F)c(F)c(F)c3F)cc21` [Compound 106, 2-(2-(2,2,7-trifluoro-3-oxo-6-(perfluorophenyl)-2,3-dihydro-4H-benzo[b][1,4]oxazin-4-yl)ethyl)benzoic acid] the IC50 was under 100 nM and the IC50 (Example 17b) was under 100 nM.

Work on `COC(=O)C(C)N1C(=O)C(F)(F)Oc2cc(F)c(-c3c(F)c(F)c(F)c(F)c3F)c(F)c21` (stereo in doubt) [Compound 174, methyl (S)-2-(2,2,5,7-tetrafluoro-3-oxo-6-(perfuorophenyl)-2,3-dihydro-4H-benzo[b][1,4]oxazin-4-yl)propanoate] yielded an IC50 (Example 17b) of under 100 nM.

`CNNC(=O)CN1C(=O)C(F)(F)Oc2cc(F)c(-c3c(F)c(F)c(F)c(F)c3F)cc21` [Compound 59, N′-methyl-2-(2,2,7-trifluoro-3-oxo-6-(perfluorophenyl)-2,3-dihydro-4H-benzo[b][1,4]oxazin-4-yl)acetohydrazide] gave an IC50 of under 100 nM and an IC50 (Example 17b) of under 100 nM.

`CN(O)C(=O)CN1C(=O)C(F)(F)Oc2cc(F)c(-c3c(F)c(F)c(F)c(F)c3F)cc21` [Compound 98, N-hydroxy-N-methyl-2-(2,2,7-trifluoro-3-oxo-6-(perfluorophenyl)-2,3-dihydro-4H-benzo[b][1,4]oxazin-4-yl)acetamide] was tested, and the IC50 was under 100 nM and the IC50 (Example 17b) was under 100 nM.

`C[C@@H](C(=O)O)N1C(=O)C(F)(F)Oc2cc(F)c(-c3c(F)c(F)c(F)c(F)c3F)c(F)c21` [Compound 177, (S)-2-(2,2,5,7-tetrafluoro-3-oxo-6-(perfluorophenyl)-2,3-dihydro-4H-benzo[b][1,4]oxazin-4-yl)propanoic acid] showed an IC50 (Example 17b) of under 100 nM.

In the case of `O=C(O)[C@@H]1COCCN1C(=O)CN1C(=O)C(F)(F)Oc2cc(F)c(-c3c(F)c(F)c(F)c(F)c3F)cc21` [Compound 127, (S)-4-(2-(2,2,7-trifluoro-3-oxo-6-(perfluorophenyl)-2,3-dihydro-4H-benzo[b][1,4]oxazin-4-yl)acetyl)morpholine-3-carboxylic acid], the IC50 is reported as under 100 nM and the IC50 (Example 17b) is reported as under 100 nM.
